{
  "source": "paper PMC7862700",
  "note": "This is a selection; strong and weak results do not stand in their true shares. At the low end of the ranking the order means little.",
  "data": [
    {"target": "SPI1 (UniProt P17947)", "assay": "DAPPL (digital affinity profiling via proximity ligation, sequencing)", "conditions": "10 mM Tris-HCl pH 7.5, 50 mM NaCl, 1 mM DTT, 4% glycerol, room temperature, 30 min; GST-TFs on glutathione beads, 16-mer random dsDNA library, 0.1% …; high values mean tight binding; double strand, one strand shown; scale: fold enrichment (6-mer frequency, TF over GST control)", "values": [
      {"sequence": "GGCAAC", "binding signal": 0.88},
      {"sequence": "CAGGCT", "binding signal": 0.848},
      {"sequence": "TGTGTA", "binding signal": 0.861},
      {"sequence": "AGCGGG", "binding signal": 0.495},
      {"sequence": "CGGGCA", "binding signal": 0.699},
      {"sequence": "TGGGAG", "binding signal": 0.414},
      {"sequence": "CGTGTT", "binding signal": 0.723},
      {"sequence": "CGGGTG", "binding signal": 0.648},
      {"sequence": "CCGAGG", "binding signal": 0.667},
      {"sequence": "AGGAGC", "binding signal": 0.38},
      {"sequence": "GGGGGA", "binding signal": 0.559},
      {"sequence": "TGGAGA", "binding signal": 0.412},
      {"sequence": "AGCGGT", "binding signal": 0.758},
      {"sequence": "GTCATC", "binding signal": 0.884},
      {"sequence": "TCGGAT", "binding signal": 0.526},
      {"sequence": "GTAGTG", "binding signal": 0.79},
      {"sequence": "CGGACG", "binding signal": 0.459},
      {"sequence": "AAGGTG", "binding signal": 0.925},
      {"sequence": "GAGCCT", "binding signal": 0.841},
      {"sequence": "TCGGCG", "binding signal": 0.458},
      {"sequence": "GTGGGT", "binding signal": 0.503},
      {"sequence": "GTGCGA", "binding signal": 0.927},
      {"sequence": "CATGTG", "binding signal": 0.8},
      {"sequence": "AGCGCG", "binding signal": 0.781},
      {"sequence": "GCAGTT", "binding signal": 0.823},
      {"sequence": "CGCATG", "binding signal": 0.604},
      {"sequence": "GCGGGG", "binding signal": 0.458},
      {"sequence": "TTAGAC", "binding signal": 0.847},
      {"sequence": "GGCGGT", "binding signal": 0.402},
      {"sequence": "CATGTC", "binding signal": 0.791},
      {"sequence": "AGGCGT", "binding signal": 0.492},
      {"sequence": "CCAGGC", "binding signal": 0.396},
      {"sequence": "GCAAGT", "binding signal": 0.791},
      {"sequence": "GTGAGT", "binding signal": 0.137},
      {"sequence": "AGACAT", "binding signal": 0.836},
      {"sequence": "AGGGAG", "binding signal": 0.375},
      {"sequence": "CCCAGG", "binding signal": 0.682},
      {"sequence": "GGCTGG", "binding signal": 0.759},
      {"sequence": "CACAGG", "binding signal": 0.861},
      {"sequence": "AGGAGG", "binding signal": 0.221}
    ]}
  ]
}
